Laboratory results reported in article PMC7556866.
No constants are given. Whether binding was seen depends on the method and setting. Some entries that bind do so weakly or less than the wild type.

Target: T1, Full-length human GIRK1 (human) (UniProt P48549)
T1 sequence: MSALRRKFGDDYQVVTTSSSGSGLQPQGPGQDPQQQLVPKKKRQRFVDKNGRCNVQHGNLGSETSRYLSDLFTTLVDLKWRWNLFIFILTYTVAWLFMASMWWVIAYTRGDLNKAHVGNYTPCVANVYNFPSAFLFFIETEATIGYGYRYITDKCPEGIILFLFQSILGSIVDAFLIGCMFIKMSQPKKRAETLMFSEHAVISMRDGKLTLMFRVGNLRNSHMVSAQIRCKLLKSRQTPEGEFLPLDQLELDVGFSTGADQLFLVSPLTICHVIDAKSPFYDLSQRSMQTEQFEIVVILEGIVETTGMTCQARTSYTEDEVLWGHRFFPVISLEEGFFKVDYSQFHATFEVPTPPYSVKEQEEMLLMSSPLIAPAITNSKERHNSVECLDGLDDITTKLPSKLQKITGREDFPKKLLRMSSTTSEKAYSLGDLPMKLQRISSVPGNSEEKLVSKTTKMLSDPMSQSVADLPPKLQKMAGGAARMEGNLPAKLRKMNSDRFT
Assay: cryo-EM structure; single particle analysis of GIRK1/4 co-expressed and co-purified by tandem affinity (Talon, then 1D4 resin), DDM/CHS, 0.5 mM C8-PIP2, C2 symmetry; extended (7.9 Å) and docked (4.6 Å) maps; both purified

binding: binds
B1: Full-length human GIRK4 (protein, UniProt P48544 1-419)
chain: MAGDSRNAMNQDMEIGVTPWDPKKIPKQARDYVPIATDRTRLLAEGKKPRQRYMEKSGKCNVHHGNVQETYRYLSDLFTTLVDLKWRFNLLVFTMVYTVTWLFFGFIWWLIAYIRGDLDHVGDQEWIPCVENLSGFVSAFLFSIETETTIGYGFRVITEKCPEGIILLLVQAILGSIVNAFMVGCMFVKISQPKKRAETLMFSNNAVISMRDEKLCLMFRVGDLRNSHIVEASIRAKLIKSRQTKEGEFIPLNQTDINVGFDTGDDRLFLVSPLIISHEINQKSPFWEMSQAQLHQEEFEVVVILEGMVEATGMTCQARSSYMDTEVLWGHRFTPVLTLEKGFYEVDYNTFHDTYETNTPSCCAKELAEMKREGRLLQYLPSPPLLGGCAEAGLDAEAEQNEEDEPKGLGGSREARGSV
